This is an account of results in paper PMC6954894.

Amino acid sequences for entries named in this document (tags omitted). Residues count along the entry.
UniProt Q9QUK6, residues 26-835: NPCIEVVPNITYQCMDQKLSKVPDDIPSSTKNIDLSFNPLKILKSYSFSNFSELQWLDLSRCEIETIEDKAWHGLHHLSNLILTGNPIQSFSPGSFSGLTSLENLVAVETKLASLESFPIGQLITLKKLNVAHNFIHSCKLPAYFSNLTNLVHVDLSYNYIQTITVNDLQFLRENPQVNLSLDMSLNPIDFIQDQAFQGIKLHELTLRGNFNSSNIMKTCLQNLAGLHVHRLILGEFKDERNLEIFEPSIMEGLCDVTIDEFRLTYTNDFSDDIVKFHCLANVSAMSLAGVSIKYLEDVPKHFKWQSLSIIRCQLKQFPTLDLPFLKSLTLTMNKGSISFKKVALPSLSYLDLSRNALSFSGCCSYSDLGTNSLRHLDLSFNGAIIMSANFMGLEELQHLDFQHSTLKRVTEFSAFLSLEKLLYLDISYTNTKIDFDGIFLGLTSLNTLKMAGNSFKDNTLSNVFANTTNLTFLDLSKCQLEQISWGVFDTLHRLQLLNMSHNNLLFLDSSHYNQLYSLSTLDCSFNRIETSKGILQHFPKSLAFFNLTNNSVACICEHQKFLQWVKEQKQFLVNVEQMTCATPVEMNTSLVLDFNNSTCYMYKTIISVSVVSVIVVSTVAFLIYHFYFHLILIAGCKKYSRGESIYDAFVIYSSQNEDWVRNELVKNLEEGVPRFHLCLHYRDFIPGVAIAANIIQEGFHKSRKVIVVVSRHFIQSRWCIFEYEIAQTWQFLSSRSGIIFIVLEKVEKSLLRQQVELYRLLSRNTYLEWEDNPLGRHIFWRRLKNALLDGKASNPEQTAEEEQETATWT
UniProt Q08509: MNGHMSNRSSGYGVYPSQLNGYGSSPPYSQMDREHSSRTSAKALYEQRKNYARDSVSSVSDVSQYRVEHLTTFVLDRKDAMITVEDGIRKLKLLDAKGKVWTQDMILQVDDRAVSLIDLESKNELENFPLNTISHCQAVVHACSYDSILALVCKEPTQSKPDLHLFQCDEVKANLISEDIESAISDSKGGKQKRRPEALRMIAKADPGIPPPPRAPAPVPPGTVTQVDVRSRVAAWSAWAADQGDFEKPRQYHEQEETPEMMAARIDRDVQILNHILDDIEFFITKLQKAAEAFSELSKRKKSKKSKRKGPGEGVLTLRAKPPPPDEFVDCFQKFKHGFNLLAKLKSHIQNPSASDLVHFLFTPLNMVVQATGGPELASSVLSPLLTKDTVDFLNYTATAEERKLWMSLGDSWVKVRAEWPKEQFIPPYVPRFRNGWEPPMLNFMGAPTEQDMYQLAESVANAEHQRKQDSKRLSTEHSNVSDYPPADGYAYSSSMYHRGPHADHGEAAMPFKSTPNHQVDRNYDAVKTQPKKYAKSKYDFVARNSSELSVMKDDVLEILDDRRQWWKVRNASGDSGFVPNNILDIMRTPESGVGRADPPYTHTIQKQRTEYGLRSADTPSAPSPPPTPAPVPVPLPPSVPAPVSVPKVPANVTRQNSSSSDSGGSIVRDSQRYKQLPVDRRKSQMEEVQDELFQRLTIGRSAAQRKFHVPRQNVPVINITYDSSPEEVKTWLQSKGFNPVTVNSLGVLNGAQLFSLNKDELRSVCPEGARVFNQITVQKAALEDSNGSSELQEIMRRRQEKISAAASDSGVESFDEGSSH
UniProt Q60631: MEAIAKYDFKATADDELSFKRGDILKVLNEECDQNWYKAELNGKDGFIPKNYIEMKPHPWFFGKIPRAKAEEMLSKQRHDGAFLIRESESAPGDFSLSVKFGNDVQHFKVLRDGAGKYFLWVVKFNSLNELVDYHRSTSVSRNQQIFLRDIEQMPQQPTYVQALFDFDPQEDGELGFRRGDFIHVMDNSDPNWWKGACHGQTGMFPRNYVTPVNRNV

Test [1] deals with Toll-like receptor 4 (mouse (endogenous in BMDM)) (UniProt Q9QUK6). The experiment in a line: co-IP; endogenous proteins in BMDM; control, LPS (1 μg/mL) for 30 min, or LPS with PD168393 pretreatment for 30 min.
Test [2] has the same target. The experiment in a line: co-IP; endogenous proteins, 6 h after LPS treatment.

No constants are given. Whether binding was seen depends on the method and setting. Binding seen in cells or lysates may run through a third protein. Some results given as binding are weak or reduced against the parent protein; the word gives no strength.

With “EGFR (from UniProt Q01279 25-1210) (receptor)”, the binding entry in test [1] was “no binding”.
Consider “Epidermal growth factor receptor pathway substrate 8 (from UniProt Q08509 1-821)”, for which the binding result in test [2] is “binds”.
The same measure, in the same setting: as for “growth-factor receptor-bound protein 2 (from UniProt Q60631 1-217)”, the entry is “binds”.
